Screen size: about 1,200 compounds; fewer than 10 were called active.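 Rule for the calls: active = inhibition reaching a set limit at one or more tested concentrations; inactive = inhibition under that limit at every dose.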 The list shows a part of the results. Measured potencies and affinities stand elsewhere.
Experiment: yeast RAM network inhibitors, dose response, S. cerevisiae (AID 1307);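 note: 0% = DMSO vehicle wells and 100% = 10 µM 1-NA-PP1 control; higher inhibition means more yeast growth since RAM block rescues cells from 5-FOA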
Conditions: S. cerevisiae RAM network URA3 reporter, 5-FOA growth OD615, hits give high values, yeast express analog-sensitive mutant Cbk1 kinase; at 100 µM unless noted

Max inhibition, inactive:
O=C(O)C(Cc1ccccc1)N1C(=O)/C(=C/c2cccs2)SC1=S (stereo unspecified) 1.68% [at 50 µM]
Cc1ccc(NC(=O)CSc2nnc(-c3cccs3)n2Cc2ccco2)cc1 4.32% [at 50 µM]
COC(=O)C1=CN(Cc2cccs2)C=C(C(=O)OC)C1c1cccc(Cl)c1 4.01%
CCOC(=O)c1ccc(NC(=S)NC(=O)COc2ccccc2)cc1 9.41%
CCCOc1ccc(/C=N/Nc2ccccc2[N+](=O)[O-])c(OCCC)c1 6.82%
Cc1ccc(CCC(=O)Nc2ncc(Cc3cc(Cl)ccc3Cl)s2)o1 3.23% [at 1.563 µM]
CC(C)[C@H](CN(N=O)[C@@H](Cc1ccccc1)CN(C)N=O)N(CCc1ccccc1)N=O 4.57% [at 50 µM]
O=C(Nc1ccc(Oc2ccc3ccccc3c2)cc1)c1ccco1 4.04%
CCC(=O)NC(=S)Nc1ccc(NC(=S)NC(=O)c2ccccc2)cc1 5.34% [at 50 µM]
CCCCC(=O)Nc1cccc(NC(=S)NC(=O)COc2ccccc2Cl)c1 5.08%
COc1cc(-c2nnc(-c3ccccc3)o2)cc(OC)c1OC 2.19% [at 0.196 µM]
C=CCNC(=O)/C(C#N)=C/c1ccc(OS(=O)(=O)c2ccc(C)cc2)c(OC)c1 2.71%
O=C(NCc1ccccc1)/C(=C/c1ccc(OC(F)F)cc1)c1ccccc1 2.17% [at 50 µM]
CCCc1ccc(/C=C2\C(=O)c3ccccc3C(O)=C2C(=O)OCC)cc1 3.48% [at 50 µM]
CCOC(=O)c1c(C)[nH]c(C(=O)C(C)Sc2ccc(Cl)cc2)c1C (stereo unspecified) 2.41% [at 12.5 µM]
COC(=O)c1scc(C)c1N/N=C(\C)c1ccc(F)cc1F 8.43%
Cc1ccc(C(=O)/C=C/c2ccc(-c3ccccc3[N+](=O)[O-])o2)cc1 5.66% [at 50 µM]
COc1ccc(C2C=C(c3ccc(Br)cc3)Nc3nc(NS(C)(=O)=O)nn32)cc1 (stereo unspecified) 4.33%
COc1ccccc1/C=C/C(=O)OCC(=O)Nc1ccccc1Sc1ccccc1 4.13% [setting not given]
Cc1ccc(C(c2nnnn2C2CCCC2)N2CCc3ccccc32)cc1 (stereo unspecified) 4.04%
COc1ccc(-n2nc(C(=O)Nc3ccc(OC)c(OC)c3)c3c4ccccc4n(C)c3c2=O)cc1 10%
COc1ccc(C(=O)/C=C/Nc2ccc(S(=O)(=O)Nc3ncccn3)cc2)cc1 7.67%
CC(C)(CNC(=S)NCCc1ccccc1)CNC(=S)NCCc1ccccc1 4.96%
Cc1ccc(-c2cc(C(F)F)nc(N3CCC(C)CC3)n2)cc1 3.53%
CCOc1cc(CNc2ccc(CNc3ncn[nH]3)cc2)ccc1OCc1ccccc1 4.47%
CCCCCC(=O)O[C@]1(C(C)=O)CC[C@H]2[C@@H]3CCC4=CC(=O)CC[C@]4(C)[C@H]3CC[C@@]21C 5.66%
O=C(NC(=S)Nc1ccc(Oc2ccccc2)cc1)c1ccc(Cl)cc1 2.56% [at 25 µM]
CCCn1c(=O)c(C(=O)Nc2ccccc2C(=O)OCC)c(O)c2ccccc21 2.64% [at 50 µM]
O=C(/C=C/c1ccccc1)n1cnnc1SC/C=C/c1ccccc1 6.12% [at 50 µM]
Cc1ccc(SCC(=O)Nc2ccc(F)cc2[N+](=O)[O-])cc1C 2.24%
CC(C)COC(=O)/C(C#N)=C/c1cn(Cc2ccccc2)c2ccccc12 7.49%
Cc1cc(Cl)ccc1OCC(=O)N/N=C1\CCCc2ccccc21 1.96% [at 1.563 µM]
CCCCCCN1C=C/C(=C\C=C(C#N)C#N)c2ccccc21 8.82%
CCOc1ccc(CN(Cc2ccco2)C(c2cccs2)c2nnnn2C(C)(C)C)cc1 (stereo unspecified) 4.47%
N#CCCCSc1nnc(-c2ccc(Cl)cc2)n1-c1ccccc1 2.29% [at 12.5 µM]
Clc1ccc(CSc2nnc(/C=C/c3ccccc3)o2)cc1 2.78% [at 25 µM]
CN(Cc1ccccc1)C(=O)c1[nH]cnc1C(=O)N[C@@H](Cc1ccccc1)C(=O)OCc1ccccc1 3.63%
Cc1ccc(S(=O)(=O)N(CCC(=O)Nc2ccc(OC(F)(F)F)cc2)c2ccccc2)cc1 3.34% [at 1.563 µM]
CCOc1ccc(S(=O)(=O)Nc2nc3ccc(OC)cc3s2)cc1 8.78%
COc1ccc2c(c1)C(=O)/C(=C/C=C/c1ccccc1)CC2 5.66%
O=C(Cc1cccs1)N1CCN(c2nc(-c3ccc(Cl)cc3)cs2)CC1 2.85% [at 3.125 µM]
CN(C)c1ccc(N=Nc2ccccc2C(=O)OCC(=O)Nc2ccccc2C(F)(F)F)cc1 3.49% [at 1.563 µM]
O=C(/C=C/c1ccc(OCc2ccccc2)c(OCc2ccccc2)c1)c1cccnc1 3.78%
COc1cc(NC(=O)c2ccc3c(c2)OCO3)c2ncccc2c1 4.22%
O=C(c1ccccc1)N(Cc1cccnc1)C1(C(=O)Nc2ccccc2)CCCCC1 4.13% [at 1.563 µM]
COc1ccc(/C=C/C(=O)OCc2csc(-c3ccccc3)n2)cc1OC 1.41% [at 0.782 µM]
Cc1ccccc1OCCNc1cc(N2CCCCC2)ccc1[N+](=O)[O-] 3.77% [at 50 µM]
CCCCSc1nnc([C@H](CC(C)C)NC(=O)OC(C)(C)C)o1 1.2% [at 0.196 µM]
COc1ccc(C)cc1NC(=O)C(Sc1ccccc1)c1ccccc1 (stereo unspecified) 4.13%
N#Cc1ccc(CSc2nnc(-c3c[nH]c4ccccc34)n2-c2ccccc2)cc1 1.95% [at 0.391 µM]
O=c1c2ccccc2c(-c2ccccc2)nn1Cc1ccc(Cl)cc1 2.43% [at 0.196 µM]
C=CCN1C(=O)C(Cc2cccc(C)c2)SC1=Nc1ccc(C(=O)O)cc1 (stereo unspecified) 2.7% [at 0.782 µM]
Cc1ccc(C(=O)n2nc(-c3ccccc3)nc2NCc2ccco2)cc1 2.13%
Cc1ccc(NC(=O)c2cc(S(=O)(=O)NCCC3=CCCCC3)ccc2F)cc1 3.41%
Cc1ccc(-c2csc(N(CC3CCCO3)C(=O)c3ccco3)n2)cc1 (stereo unspecified) 1.93% [at 12.5 µM]
O=[N+]([O-])c1ccc(C2Nc3cccc4cccc(c34)N2)cc1 5.54%
CN(c1ccccc1)c1ccc(/C=c2\s/c(=C(/C#N)C(=O)C(C)(C)C)n(Cc3ccco3)c2=O)cc1 9.12%
COc1ccc(C(=O)/C=C/c2ccc(N3CCCCC3)c([N+](=O)[O-])c2)c(OC)c1 7.06% [at 50 µM]
COc1ccc(/C=C(\NC(=O)c2ccc(OCC(C)C)cc2)C(=O)OCc2ccco2)cc1 2.11%
Cc1cc(C)cc(NC(=O)CSCc2cnn(-c3ccccc3)c2-n2cccc2)c1 7.76%
S=C(NCCC(c1ccccc1)c1ccccc1)Nc1ccccc1Cl 2.81%
CC(C)CNC(=O)c1ccccc1NC(=O)c1ccc(CSc2ccccc2)cc1 3.8% [at 12.5 µM]
CCCC(CCC)=NNc1ccc(S(=O)(=O)Nc2ccccc2OC)cc1[N+](=O)[O-] 3.78% [at 0.391 µM]
O=c1c2ccccc2nc(SCc2cccc(F)c2)n1Cc1ccco1 5.29% [at 50 µM]
CCC(C(=O)OCC(=O)Nc1c(Cl)cc(Cl)cc1Cl)c1ccccc1 (stereo unspecified) 3.02% [at 0.782 µM]
COc1ccc(-c2ccc(-c3noc(-c4ccccc4)n3)c(OC)n2)cc1 3.85% [at 50 µM]
CCN(CC)S(=O)(=O)c1cccc(-c2nnc(SC(C)C(=O)NCCC3=CCCCC3)o2)c1 (stereo unspecified) 2.79% [at 25 µM]
CCOc1cc(NC(=O)c2ccccn2)c(OCC)cc1NC(=O)c1ccc(C)cc1 7.44%
O=C1CCC(/C=C/c2ccccc2)=NN1Cc1ccc(Cl)c(Cl)c1 3.06%
COc1cc(CNn2c(C)n[nH]c2=S)cc(Cl)c1OCc1ccccc1 2.51% [at 25 µM]
CCOC(=O)c1[nH]cnc1N=Nc1c(O)ccc2ccccc12 16.7%
O=C(Nc1cccc(C(F)(F)F)c1)C1CCCCC1 3.33% [at 3.125 µM]
O=C(Nc1ccn(Cc2cccc3ccccc23)n1)c1cccnc1 3.63%
Cc1ccc(/C=C/c2ccc(=O)n(Cc3ccccc3Cl)n2)cc1 3.92% [at 3.125 µM]
O=C(c1ccc(C(F)(F)F)cc1)N1CCC(=O)N(C(COCc2ccccc2)Cc2ccccc2)CC1 (stereo unspecified) 2.82%
CC(C)Oc1cccc(C(=O)NC(=S)Nc2cccc(C(F)(F)F)c2)c1 2.41% [at 0.782 µM]
CC(=O)c1ccc(OCc2ccc(Oc3c(Cl)cccc3[N+](=O)[O-])cc2)cc1 2.72%
COc1ccc(OC)c(NC(=O)C(Sc2ccccc2)c2ccccc2)c1 (stereo unspecified) 4.44% [at 50 µM]
COc1ccc(-c2csc(NCc3ccco3)n2)cc1C 4.8% [at 50 µM]
CC(=O)OCCCNc1cc(Sc2ccc(Cl)cc2)c2nonc2c1[N+](=O)[O-] 10.4%
COc1cc(/C=N/Nc2ccc(Cl)cc2)ccc1OC(=O)c1cccs1 2.6% [at 0.391 µM]

A portion from further up, as a working copy:
Max inhibition, inactive:
Cc1ccc(C(c2nnnn2C2CCCC2)N2CCc3ccccc32)cc1 (stereo unspecified) 4.04%
COc1ccc(-n2nc(C(=O)Nc3ccc(OC)c(OC)c3)c3c4ccccc4n(C)c3c2=O)cc1 10%
COc1ccc(C(=O)/C=C/Nc2ccc(S(=O)(=O)Nc3ncccn3)cc2)cc1 7.67%
CC(C)(CNC(=S)NCCc1ccccc1)CNC(=S)NCCc1ccccc1 4.96%
Cc1ccc(-c2cc(C(F)F)nc(N3CCC(C)CC3)n2)cc1 3.53%

3 compounds from above, ordered by SMILES length, falling.
Max inhibition, inactive:
COc1ccc(C(=O)/C=C/c2ccc(N3CCCCC3)c([N+](=O)[O-])c2)c(OC)c1 7.06% [at 50 µM]
COc1ccc(OC)c(NC(=O)C(Sc2ccccc2)c2ccccc2)c1 (stereo unspecified) 4.44% [at 50 µM]
COc1ccc(C)cc1NC(=O)C(Sc1ccccc1)c1ccccc1 (stereo unspecified) 4.13%
